# Primary screen of a compound library

Measurements from “University of Dundee, Small-Polar-MMV Screening Library” (2021), ChEMBL document CHEMBL3988442.

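Whole-cell assay for inhibitors of Mycobacterium tuberculosis growth, labelled Cornell in the record; the read-out is not stated. The concentration is filed as 10 mM, unlikely as a test dose, so the dose is not known. The record gives no direction; compounds strong in two other growth screens of this library score well above the rest, so higher reads as stronger inhibition. About 53,000 compounds were tested under these conditions; 1.7% (about 900) showed 50% or more at least once.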

The filed quantity is “Percent Effect” (%).
The controls that fix the scale are not given in the record; negative values are as filed.
This is an unselected part of the compounds tested.

* COc1ccc(S(=O)(=O)N2Cc3c(CN(C)C)nn(C)c3C2)cc1.O=C(O)C(F)(F)F : -17.09%
* CN(CC(=O)Nc1cc(-c2cc(Cl)cc(Cl)c2)[nH]n1)S(C)(=O)=O : 3.236%
* O=C(O)C(F)(F)F.O=C1CC2(CCN(CC3CCOC3)CC2)c2ccccc2N1CC1CC1 (stereo unspecified) : 6.813%
* Cc1cc(N)n(-c2ccc3nnc(C)n3n2)n1 : -1.385%
* C=C(C)COc1cccc(C(=O)N(C)Cc2cc(CC)no2)c1 : 10.15%
* CC(C)CN1CCc2[nH]cnc2C12CCN(C(=O)c1ccc[nH]1)CC2 : 23.23%
* Cc1nc(N2CCCC(C)C2)nc2cc(S(C)(=O)=O)ccc12 (stereo unspecified) : 3.884%
* CO[C@H]1CN(C(=O)OC(C)(C)C)CC1NCc1cccn1C (stereo partly specified) : 20.18%
* Cc1ccc(N(CCC#N)C(=O)CCc2cscn2)cc1C : -17.06%
* CC(=O)c1c(F)cccc1N1CCC(C(N)=O)CC1 : -7.074%
* CN(Cc1cn2c(n1)CN(C(=O)C1CCCO1)CC2)Cc1ccco1 (stereo unspecified) : -9.315%
* O=C(O)C(F)(F)F.O=C(O)C(F)(F)F.[H][C@@]12CCN(Cc3ccccn3)[C@]1([H])CC[C@@H](c1nnc(C)o1)O2 : 0.827%
* CCn1cc(CNC(=O)C(C)C)cn1 : 7.058%
* COc1cc(CC2CC(C(N)=O)=NO2)cc2c1OCO2 (stereo unspecified) : 13.11%
* C/C=C(/C)C(=O)NS(=O)(=O)c1ccc(Cl)cn1 : 21.62%
* COCCN1CCN(C(=O)N2CCCC2)Cc2ccc(C)nc21.O=C(O)C(F)(F)F : -22.61%
* O=C(CCCNc1ncccn1)N1CCCC(n2ccnc2)C1 (stereo unspecified) : 11.69%
* O=c1c2cn[nH]c2nc(SCCN2CCCC2)n1-c1ccccc1 : 21.02%
* CN(C)Cc1cnc2n1CCN(C(=O)Cc1cccc(F)c1)CC2.O=C(O)C(F)(F)F : 29.88%
* CC(C)CC(=O)NCCn1nc(C2CCNC2)c2cccnc21.Cl (stereo unspecified) : 1.282%
* COc1cccc(-n2cc(-c3ccnc(N[C@H](CO)C(C)C)n3)cn2)c1 : 27.63%
* c1ccc(-c2nc(SCc3nnc(C4CC4)o3)n[nH]2)nc1 : -11.82%
* CS(=O)(=O)N1CCc2c(nnn2CC2CC2)C1COCC1CC1 (stereo unspecified) : 15.82%
* Cn1ncc(-c2cc(-c3cccc(O)c3)nc(N)c2C#N)c1C1CC1 : 22.66%
* Cc1cc(C)cc(NC(=O)CN2CCCC(n3cncn3)C2)c1 (stereo unspecified) : 22.2%
* CCOCc1cncc2c1CCN(S(=O)(=O)c1ccc(C)cc1)C2 : -13.85%
* Cc1cccc(-c2nc3cc(S(=O)(=O)N4CCCC4)ccc3n2C)n1 : -12.65%
* [H][C@@]12CCN(Cc3nc(C)cs3)C[C@@]1([H])O[C@@H](c1nnc(C)[nH]1)C2 : -14.22%
* O=C(Cn1ccc2ccc(Cl)cc21)/N=c1\[nH]nc(C2CCCO2)s1 (stereo unspecified) : 9.394%
* O=C(C1CCOCC1)N1CC[C@@H](O)[C@@H]1Cc1ccncc1 : -17.05%
* [H][C@@]12CS(=O)(=O)C[C@]1([H])N(S(=O)(=O)c1cccc(F)c1)CCN2C(=O)CC : -33.66%
* CCN(C(=O)CN1CCCC1c1ccc(OC)cc1)c1ccccc1C (stereo unspecified) : 6.223%
* CC(=O)N1CCOC(c2c(C(=O)NCCN(C)C)sc3ccccc23)C1 (stereo unspecified) : -23.17%
* CC(C)Nc1nc2c(c(NC3CC3)n1)CN(C(=O)c1ccncc1)CC2 : -29.37%
* CC(C)c1nc(C2CCCN(C(=O)CN(C)S(C)(=O)=O)C2)no1 (stereo unspecified) : -21.25%
* CCN(Cc1ccncc1)CC1(O)CCN(C(=O)c2cnn(C)c2)C1 (stereo unspecified) : -5.524%
* CN(CCS(=O)(=O)c1cc(Cl)ccc1Cl)CC(N)=O : 108.8%
* c1cc(C2CCCN2CC2CC2)n[nH]1 (stereo unspecified) : -46.21%
* Cc1cc(CN2CC[C@]3(C[C@@H](OCC(=O)N(C)C)CO3)C2)no1.O=C(O)C(F)(F)F : -94.84%
* Cc1csc(N2CCN(CC(=O)Nc3c(C)n[nH]c3C)CC2C)n1 (stereo unspecified) : 11.13%
* CC(Nc1nc2c(cnn2C)c(=O)[nH]1)c1ccccn1 (stereo unspecified) : 13.61%
* O=C(O)c1ccccc1-c1ccc(CN2CCCC(O)C2)cc1 (stereo unspecified) : -31.58%
* CCOc1ccc2c(c1)C=C(C(=O)NC(C)Cn1cccn1)CO2 (stereo unspecified) : 39.78%

Some entries from above, unchanged:

SMILES,percent effect
COc1cc(CC2CC(C(N)=O)=NO2)cc2c1OCO2 (stereo unspecified),13.11
CC(=O)c1c(F)cccc1N1CCC(C(N)=O)CC1,-7.074
C/C=C(/C)C(=O)NS(=O)(=O)c1ccc(Cl)cn1,21.62